Laboratory results as given in patent EP2545075B1 (NovelMed Therapeutics, Inc., dated 2020).
Results are given in words; binding and its absence hold for the method and conditions named. Some entries that bind do so weakly or less than the wild type.

Sequences of proteins named here, by UniProt entry; tags and fusion partners are left off. Residues count along the entry.
UniProt P27918, residues 28-469: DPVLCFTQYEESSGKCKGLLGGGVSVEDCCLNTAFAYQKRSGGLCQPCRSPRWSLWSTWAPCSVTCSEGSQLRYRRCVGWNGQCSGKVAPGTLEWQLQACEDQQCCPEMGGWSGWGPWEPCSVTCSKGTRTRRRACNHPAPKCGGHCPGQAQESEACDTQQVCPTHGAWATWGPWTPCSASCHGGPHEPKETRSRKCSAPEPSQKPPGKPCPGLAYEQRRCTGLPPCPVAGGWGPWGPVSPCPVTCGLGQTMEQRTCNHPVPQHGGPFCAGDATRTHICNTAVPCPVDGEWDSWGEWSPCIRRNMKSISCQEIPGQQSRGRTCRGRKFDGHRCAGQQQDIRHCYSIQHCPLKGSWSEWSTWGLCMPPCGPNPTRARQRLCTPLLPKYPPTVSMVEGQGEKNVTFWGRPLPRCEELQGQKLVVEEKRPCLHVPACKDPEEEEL

Key:
human properdin [1] = target: T1, human properdin (human, UniProt P27918 28-469); test: ELISA on properdin-coated plates
human properdin [2] = target: T1, human properdin; test: Properdin binding assay (Fig. 18)
human properdin [3] = target: T1, human properdin; test: Properdin binding assay (Fig. 18 legend)
human properdin [4] = target: T1, human properdin; test: ELISA on properdin-coated plates (Fig. 2)
human properdin [5] = target: T1, human properdin; test: ELISA on properdin-coated plates (Fig. 2 legend)
human properdin [6] = target: T1, human properdin; test: Binding to the antigen properdin (ELISA)

Measured: binding

B1: NM9401-IgG (antibody, V domains shown)
VH: QVQLQQSAPELARPGASVKMSCTASGYIFTNYPIHWVKQRPGQGLEWIGFIDPGGGYDEPDERFRDRATLTADKSSSTAYMQLSSLTSEDSAIYYCARRGGGYYLDYWGQGTTLTVSS
VL: DIQMTQTTSSLSASLGDRVTISCRASQDISFFLNWYQQKPDGTVKLLIYYTSRYHSGVPSRFSGSGSGTDFSLTINNLEQEDFATYFCQHGNTLPWTFGGGTKLEIK
modifications: Biotinylated in Example 5 (site not stated).
not listed: human properdin [6]
binds: all other assays above

B2: BAP010_1 (antibody, IgG1, V domains shown)
VH: QVQLQQSAPELARPGASVKMSCTASGYIFTNYPIHWVKQRPGQGLEWIGFIDPGGGYDEPDERFRDRATLTADKSSSTAYMQLSSLTSEDSAIYYCARRGGGYYLDYWGQGTTLTVSS
VL: DIQMTQTTSSLSASLGDRVTISCRASQDISFFLNWYQQKPDGTVKLLIYYTSRYHSGVPSRFSGSGSGTDFSLTINNLEQEDFATYFCQHGNTLPWTFGGGTKLEIK
notes: Chimeric full-length IgG1/kappa carrying the variable domains of NM9401, expressed in CHO-S cells; also called chimeric anti-properdin monoclonal antibody; recombinant antibody BAP010_1
binds: human properdin [2] | human properdin [3] | human properdin [6]

B3: NM9401-Fab (Fab, V domains shown)
VH: QVQLQQSAPELARPGASVKMSCTASGYIFTNYPIHWVKQRPGQGLEWIGFIDPGGGYDEPDERFRDRATLTADKSSSTAYMQLSSLTSEDSAIYYCARRGGGYYLDYWGQGTTLTVSS
VL: DIQMTQTTSSLSASLGDRVTISCRASQDISFFLNWYQQKPDGTVKLLIYYTSRYHSGVPSRFSGSGSGTDFSLTINNLEQEDFATYFCQHGNTLPWTFGGGTKLEIK
notes: Fab fragment of the murine antibody NM9401; also called anti-properdin Fab
binds: human properdin [1] | human properdin [4] | human properdin [5]
